Here are results for two compounds from ChEMBL document CHEMBL5674883, “The Heterochromatin Landscape in Migrating Cells and the Importance of H3K27me3 for Associated Transcriptome Alterations” (Cells, 2018).

Amino acid sequences for entries named in this document (tags omitted).
UniProt Q61188, whole entry: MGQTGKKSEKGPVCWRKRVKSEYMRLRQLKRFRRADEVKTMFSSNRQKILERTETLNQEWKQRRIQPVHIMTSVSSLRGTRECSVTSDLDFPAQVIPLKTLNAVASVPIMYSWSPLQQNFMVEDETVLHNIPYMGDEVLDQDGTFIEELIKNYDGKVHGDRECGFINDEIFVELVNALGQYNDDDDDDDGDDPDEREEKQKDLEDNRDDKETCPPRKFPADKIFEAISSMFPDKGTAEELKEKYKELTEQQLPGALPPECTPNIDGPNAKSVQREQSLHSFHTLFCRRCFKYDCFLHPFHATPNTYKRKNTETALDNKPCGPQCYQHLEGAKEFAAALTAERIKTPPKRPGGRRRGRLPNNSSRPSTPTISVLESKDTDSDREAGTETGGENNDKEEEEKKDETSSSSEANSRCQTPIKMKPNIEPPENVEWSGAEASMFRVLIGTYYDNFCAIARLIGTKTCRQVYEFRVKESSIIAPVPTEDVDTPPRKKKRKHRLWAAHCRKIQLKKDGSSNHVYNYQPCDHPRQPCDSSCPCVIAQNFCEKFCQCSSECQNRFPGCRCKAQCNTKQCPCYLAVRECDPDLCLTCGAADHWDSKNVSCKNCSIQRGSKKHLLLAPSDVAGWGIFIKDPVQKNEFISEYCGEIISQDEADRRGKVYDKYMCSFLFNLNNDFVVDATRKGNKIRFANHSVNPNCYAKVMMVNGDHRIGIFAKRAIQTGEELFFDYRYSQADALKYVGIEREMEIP

Common to all, as to assay type: cell-based
In experiment [1] the target is T1, RNA polymerase II (Mus musculus) (UniProt P08775+Q8CFI7+P97760+A0A3Q4L2S8+Q80UW8+P61219+P62488+Q923G2+P60898+O08740+Q63871+P62876). In words: Inhibition of RNA polymerase II in mouse B16-F1 migrating cells assessed as fold change in Rbck1-RNA stability at 0.1 mM measured by ChIP-seq analysis relative to control cells.
Experiment [2] deals with T1, RNA polymerase II (Mus musculus). In words: Inhibition of RNA polymerase II in mouse B16-F1 migrating cells assessed as fold change in Gapdh-RNA stability at 0.1 mM measured by ChIP-seq analysis relative to control cells.
The target is the same in experiment [3]. In words: Inhibition of RNA polymerase II in mouse B16-F1 migrating cells assessed as fold change in Trim11-RNA stability at 0.1 mM measured by ChIP-seq analysis relative to control cells.
For experiment [4] the target is unchanged. Put plainly: Inhibition of RNA polymerase II in mouse B16-F1 migrating cells assessed as fold change in Dlc1-RNA stability at 0.1 mM measured by ChIP-seq analysis relative to control cells.
Experiment [5] has the same target. In words: Inhibition of RNA polymerase II in mouse B16-F1 migrating cells assessed as fold change in Isg20l2-RNA stability at 0.1 mM measured by ChIP-seq analysis relative to control cells.
Experiment [6] has the same target. Put plainly: Inhibition of RNA polymerase II in mouse B16-F1 migrating cells assessed as fold change in Slc35b2-RNA stability at 0.1 mM measured by ChIP-seq analysis relative to control cells.
The target is the same in experiment [7]. Put plainly: Inhibition of RNA polymerase II in mouse B16-F1 migrating cells assessed as fold change in Pfkl-RNA stability at 0.1 mM measured by ChIP-seq analysis relative to control cells.
For experiment [8] the target is unchanged. In words: Inhibition of RNA polymerase II in mouse B16-F1 migrating cells assessed as fold change in Alcam-RNA stability at 0.1 mM measured by ChIP-seq analysis relative to control cells.
The target is the same in experiment [9]. In words: Inhibition of RNA polymerase II in mouse B16-F1 migrating cells assessed as fold change in Ptpn4-RNA stability at 0.1 mM measured by ChIP-seq analysis relative to control cells.
Experiment [10] has the same target. Put plainly: Inhibition of RNA polymerase II in mouse B16-F1 migrating cells assessed as fold change in Gtpbp10-RNA stability at 0.1 mM measured by ChIP-seq analysis relative to control cells.
The target is the same in experiment [11]. Put plainly: Inhibition of RNA polymerase II in mouse B16-F1 migrating cells assessed as fold change in Ttll4-RNA stability at 0.1 mM measured by ChIP-seq analysis relative to control cells.
For experiment [12] the target is unchanged. Put plainly: Inhibition of RNA polymerase II in mouse B16-F1 migrating cells assessed as fold change in Ppp1r11-RNA stability at 0.1 mM measured by ChIP-seq analysis relative to control cells.
Experiment [13] shares this target. In words: Inhibition of RNA polymerase II in mouse B16-F1 migrating cells assessed as fold change in Ikbip-RNA stability at 0.1 mM measured by ChIP-seq analysis relative to control cells.
The target is the same in experiment [14]. In words: Inhibition of RNA polymerase II in mouse B16-F1 migrating cells assessed as fold change in Xrcc4-RNA stability at 0.1 mM measured by ChIP-seq analysis relative to control cells.
The target is the same in experiment [15]. In words: Inhibition of RNA polymerase II in mouse B16-F1 migrating cells assessed as fold change in Dctpp1-RNA stability at 0.1 mM measured by ChIP-seq analysis relative to control cells.
The target is the same in experiment [16]. In words: Inhibition of RNA polymerase II in mouse B16-F1 migrating cells assessed as fold change in Hps6-RNA stability at 0.1 mM measured by ChIP-seq analysis relative to control cells.
The target is the same in experiment [17]. In words: Inhibition of RNA polymerase II in mouse B16-F1 migrating cells assessed as fold change in Cisd3-RNA stability at 0.1 mM measured by ChIP-seq analysis relative to control cells.
For experiment [18] the target is unchanged. Put plainly: Inhibition of RNA polymerase II in mouse B16-F1 migrating cells assessed as fold change in Angpt2-RNA stability at 0.1 mM measured by ChIP-seq analysis relative to control cells.
The target of experiment [19] is Histone-lysine N-methyltransferase EZH2 (Mus musculus) (UniProt Q61188). In words: Inhibition of EZH2 in mouse B16-F1 migrating cells assessed as fold change in H3K27me3-independent regulated Car9-mRNA expression at 3 uM measured by ChIP-seq analysis relative to control cells.
Experiment [20] shares this target. In words: Inhibition of EZH2 in mouse B16-F1 migrating cells assessed as fold change in H3K27me3-buffered regulated Cdh19-mRNA expression at 3 uM measured by ChIP-seq analysis relative to control cells.
Experiment [21] has the same target. Put plainly: Inhibition of EZH2 in mouse B16-F1 migrating cells assessed as fold change in H3K27me3-buffered regulated Hmgcs1-mRNA expression at 3 uM measured by ChIP-seq analysis relative to control cells.
The target is the same in experiment [22]. Put plainly: Inhibition of EZH2 in mouse B16-F1 migrating cells assessed as fold change in H3K27me3-buffered regulated Zfp692-mRNA expression at 3 uM measured by ChIP-seq analysis relative to control cells.
The target is the same in experiment [23]. In words: Inhibition of EZH2 in mouse B16-F1 migrating cells assessed as fold change in H3K27me3-independent regulated Tnfrsf12a-mRNA expression at 3 uM measured by ChIP-seq analysis relative to control cells.
Experiment [24] has the same target. In words: Inhibition of EZH2 in mouse B16-F1 migrating cells assessed as fold change in H3K27me3-buffered regulated Haus3-mRNA expression at 3 uM measured by ChIP-seq analysis relative to control cells.
The target is the same in experiment [25]. In words: Inhibition of EZH2 in mouse B16-F1 migrating cells assessed as fold change in H3K27me3-buffered regulated Nexn-mRNA expression at 3 uM measured by ChIP-seq analysis relative to control cells.
For experiment [26] the target is unchanged. Put plainly: Inhibition of EZH2 in mouse B16-F1 migrating cells assessed as fold change in H3K27me3-independent regulated Pmepa1-mRNA expression at 3 uM measured by ChIP-seq analysis relative to control cells.
Experiment [27] has the same target. Put plainly: Inhibition of EZH2 in mouse B16-F1 migrating cells assessed as fold change in H3K27me3-independent regulated Abhd18-mRNA expression at 3 uM measured by ChIP-seq analysis relative to control cells.
Experiment [28] has the same target. Put plainly: Inhibition of EZH2 in mouse B16-F1 migrating cells assessed as fold change in H3K27me3-buffered regulated Tubb2b-mRNA expression at 3 uM measured by ChIP-seq analysis relative to control cells.
For experiment [29] the target is unchanged. In words: Inhibition of EZH2 in mouse B16-F1 migrating cells assessed as fold change in H3K27me3-buffered regulated Cep57-mRNA expression at 3 uM measured by ChIP-seq analysis relative to control cells.
Experiment [30] has the same target. In words: Inhibition of EZH2 in mouse B16-F1 migrating cells assessed as fold change in H3K27me3-buffered regulated Esco1-mRNA expression at 3 uM measured by ChIP-seq analysis relative to control cells.

The source gives many values for each of these; only a part stands here.

On to `OC[C@H]1O[C@@H](n2cnc3cc(Cl)c(Cl)cc32)[C@H](O)[C@@H]1O`, for which the log2FC in [1] is 0.38; in [2], 0.6; in [3] it was -0.59; in experiment [4] it was -0.54; in [5] it was -0.54; in experiment [6], 0.43. Also, the log2FC in [7] is 0.78; in experiment [8] it was -0.66; in [9], -0.56; in [10] it was -1.19; in experiment [11] it was -0.48; in experiment [12], 0.4. Besides, the log2FC in experiment [13] is -0.44; in [14], -0.51; in experiment [15], 0.41; in experiment [16] it was -1.36; in experiment [17], 0.6; in experiment [18] it was -0.43.

Take `CCCc1cc(C)[nH]c(=O)c1CNC(=O)c1cc(-c2ccnc(N3CCN(C)CC3)c2)cc2c1cnn2C(C)C`: the log2FC was 0.92 in experiment [19]; -0.46 in [20]; 0.47 in experiment [21]; -0.47 in experiment [22]; 0.47 in [23]; -0.41 in [24]. Further, the log2FC in experiment [25] was -0.49; in experiment [26] it was 0.84; in experiment [27] it was -0.75; in experiment [28], 0.47; in [29] it was -0.54; in experiment [30] it was -0.5.
